{"source": "PubChem BioAssay AID504467", "about": "(National Center for Advancing Translational Sciences (NCATS), 2011)", "note": "The campaign covered roughly 330,000 compounds. About 7,700 (2.3%) were called active. Inconclusive results, whose numbers are uncertain, are shown with a selection of clear calls. Calls come from the whole dose curve; as a rule, active = well fitted inhibition curve with a large enough effect; inconclusive = small, poorly fitted or top-dose-only effect, or effect the other way; inactive = flat fitted curve, though single readings scatter. Where the call is inconclusive, the potency comes from a doubtful curve fit. Potency is the fitted concentration of half-maximal effect.", "data": [{"assay": "qHTS screen for small molecules that inhibit ELG1-dependent DNA repair in human embryonic kidney (HEK293T) cells expressing luciferase-tagged ELG1; note: nearly all actives have a fitted effect of over 55% in size", "settings": "HEK293T ELG1-luciferase reporter, luminescence, 16 h, DNA damage induced by 5-fluorouridine; series mostly up to 46.1 µM", "method_in_brief": "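5-Fluorouridine DNA damage + compound/DMSO, 2,000 cells/well, 16 h, 37 °C/5% CO2. ONE-Glo, 30 min RT, luminescence. Readout = decrease in reporter signal.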", "values": [{"smiles": "Cc1cc(NC(=O)CCN2CCN(C/C=C/c3ccccc3)CC2)ccc1Br", "Potency": "inconclusive: 11.2 µM [inhibitor, partial curve, poor fit]"}, {"smiles": "O=C(NCc1cccnc1)C1CCN(S(=O)(=O)c2cc([N+](=O)[O-])ccc2Cl)CC1", "Potency": "inactive"}, {"smiles": "O=C(O)c1cc(S(=O)(=O)Nc2ccc(OCc3ccccc3)cc2)ccc1Br", "Potency": "inconclusive: 13 µM [activator, partial curve, poor fit]"}, {"smiles": "COc1ccc(CCNC(=O)c2ccc(Cl)c(S(=O)(=O)N(C)c3ccccc3)c2)cc1", "Potency": "active: 16.4 µM"}, {"smiles": "Cc1c(-c2ccccc2)oc2c(C(=O)OCC(=O)Nc3ccc(C(N)=O)cc3)cccc2c1=O", "Potency": "inconclusive: 20.6 µM [inhibitor, partial curve, poor fit]"}, {"smiles": "COc1ccc(N2CC(NS(=O)(=O)c3cccnc3)CC2=O)cc1OC", "note": "(configuration not stated)", "Potency": "inconclusive: 3.26 µM [activator, partial curve, poor fit]"}, {"smiles": "C=CCN(C(=O)c1cccc(N2C(=O)C3CC=CC(C)C3C2=O)c1)c1ccccc1", "note": "(configuration not stated)", "Potency": "inconclusive: 20.6 µM [inhibitor, partial curve]"}, {"smiles": "CCOC(=O)/C(C#N)=C/c1ccc(SC)cc1", "Potency": "inactive"}, {"smiles": "S=c1[nH]cnc2sc(Nc3ccccc3)nc12", "Potency": "inconclusive: 3.26 µM [activator, single point]"}, {"smiles": "Cc1cc(CNC(=O)c2cccc(OC3CCN(S(=O)(=O)N(C)C)CC3)c2)on1", "Potency": "inconclusive: 7.3 µM [activator, partial curve]"}, {"smiles": "CCN1CCN(C(=O)CN(CC)S(=O)(=O)c2ccc(F)cc2)CC1", "Potency": "inactive"}, {"smiles": "C=CCSC1=N/C(=C\\c2cccnc2)C(=O)N1c1ccc(OC)cc1", "Potency": "inconclusive: 20.6 µM [inhibitor, single point]"}, {"smiles": "Cc1ccccc1NC(=S)NC(NC(=O)c1ccccc1C)C(Cl)(Cl)Cl", "note": "(configuration not stated)", "Potency": "inactive"}, {"smiles": "O=[N+]([O-])c1cc(S(=O)(=O)Nc2ccccc2)ccc1N1CCN(c2ccccc2)CC1", "Potency": "inconclusive: 23.1 µM [inhibitor, partial curve, poor fit]"}, {"smiles": "CCOP(=O)(Nc1ccc2oc(=O)c3ccccc3c2c1)OCC", "Potency": "inconclusive: 20.6 µM [activator, single point]"}, {"smiles": "O=C(CSc1nc(C2CCCCC2)nc2ccccc12)NCc1ccco1", "Potency": "inactive"}, {"smiles": "COc1cc(/C=C(\\C#N)C(=O)Nc2cccc3ncccc23)ccc1O", "Potency": "inactive"}, {"smiles": "CCOc1ccccc1NC(=O)c1cccc(S(=O)(=O)N(Cc2ccccc2)c2ccccc2OC)c1", "Potency": "inactive"}, {"smiles": "O=C(Nc1ccc2c(c1)OCCO2)c1ccccc1", "Potency": "inconclusive: 2.06 µM [activator, full curve]"}, {"smiles": "COc1ccccc1CN1CC(C(=O)NCCc2ccc(C)o2)CCC1=O", "note": "(configuration not stated)", "Potency": "inactive"}, {"smiles": "COc1ccccc1NC(=O)COC(=O)C1CC2C=CC1C2", "note": "(configuration not stated)", "Potency": "inconclusive: 29.1 µM [activator, single point]"}, {"smiles": "CCOC(=O)c1cc2c(s1)-c1c(C)cccc1OC2", "Potency": "inconclusive: 20.6 µM [activator, partial curve]"}, {"smiles": "COC(=O)c1sccc1NC(=O)C1C2C=CC(C2)C1C(=O)O", "note": "(configuration not stated)", "Potency": "inactive"}, {"smiles": "COC(=O)c1nnn(-c2nonc2N)c1CSc1nnc(C)s1", "Potency": "inconclusive: 6.51 µM [inhibitor, single point]"}, {"smiles": "CCn1c(SCC(=O)c2ccc(O)c(O)c2)nnc1-c1ccccc1OC", "Potency": "inactive"}, {"smiles": "Cc1cc(C)c2nc(N3CCC(C(=O)NCCN4CCOCC4)CC3)sc2c1", "Potency": "inconclusive: 20.6 µM [activator, partial curve, poor fit]"}, {"smiles": "CN(c1ccccc1)S(=O)(=O)c1ccc(NC(=O)c2nc(S(C)(=O)=O)ncc2Cl)cc1", "Potency": "inconclusive: 29.1 µM [inhibitor, single point]"}, {"smiles": "CCc1ccc(-c2c(C)sc(NC(C)=O)c2C(N)=O)cc1", "Potency": "inconclusive: 16.4 µM [inhibitor, partial curve, poor fit]"}, {"smiles": "CC(=O)Nc1ccc(N2N=C(C)C(N=Nc3ccccc3)C2=O)cc1", "note": "(configuration not stated)", "Potency": "inconclusive: 18.4 µM [activator, partial curve, poor fit]"}, {"smiles": "C=CCOc1ccc(CNc2ccc3[nH]c(=O)[nH]c3c2)cc1", "Potency": "inactive"}, {"smiles": "NC(=O)NOCc1ccc(Cl)cc1Cl", "Potency": "inactive"}, {"smiles": "O=C(O)c1ccccc1NS(=O)(=O)c1cccc(N=Nc2c(O)[nH]c(=S)[nH]c2=O)c1", "Potency": "inactive"}, {"smiles": "CC(C)C(=O)NC(=S)Nc1ccc(S(=O)(=O)Nc2ccccc2)cc1", "Potency": "inactive"}, {"smiles": "CSc1ccc(N2C(=O)NC3(CCCCC3)C2=O)cc1", "Potency": "inconclusive: 8.2 µM [activator, partial curve]"}, {"smiles": "COc1ccc(C(C#N)CCC2OCCO2)cc1OC", "note": "(configuration not stated)", "Potency": "inconclusive: 1.03 µM [activator, single point]"}, {"smiles": "Cc1cc(C(=O)COC(=O)Cc2n[nH]c(=O)c3ccccc23)c(C)n1CC(F)(F)F", "Potency": "inactive"}, {"smiles": "O=C(NCCCN=C1NS(=O)(=O)c2ccccc21)c1ccc(Cl)cc1", "Potency": "inactive"}, {"smiles": "CN(Cc1cccs1)C(=O)Cc1csc(-c2ccccc2)n1", "Potency": "inconclusive: 29.1 µM [activator, single point]"}, {"smiles": "Cc1cc(NC(=O)CSc2nc3cc(C(=O)NCCCOC(C)C)ccc3c(=O)n2Cc2ccco2)no1", "Potency": "inconclusive: 29.1 µM [activator, single point]"}, {"smiles": "Cc1nn(Cc2ccccc2)c(Cl)c1/C=C/C(=O)OCC(=O)NC(C)C(C)C", "note": "(configuration not stated)", "Potency": "inconclusive: 16.4 µM [inhibitor, single point]"}, {"smiles": "O=C(CSc1nc2ccccc2c(=O)n1Cc1ccco1)N1CCN(c2ccccc2)CC1", "Potency": "inconclusive: 29.1 µM [inhibitor, single point]"}, {"smiles": "CCOC(=O)CC(=O)NC(C)(C)CCCCC(C)(C)NC(=O)CC(=O)OCC", "Potency": "inactive"}, {"smiles": "CN=c1scc(-c2ccc([N+](=O)[O-])cc2)n1/N=C/c1ccco1", "Potency": "inconclusive: 1.03 µM [activator, full curve]"}, {"smiles": "CCn1cc(C(=O)N[C@H](C(=O)NC(C)(C)CO)C(C)C)c(=O)c2cc3c(cc21)OCO3", "Potency": "inactive"}, {"smiles": "Clc1cccc(CON/C=N/c2ncnc3sccc23)c1", "Potency": "inconclusive: 25.9 µM [inhibitor, partial curve]"}, {"smiles": "Cc1ccc(/C=N/N2CCN(c3ccccc3)CC2)cc1", "Potency": "inconclusive: 4.11 µM [activator, full curve]"}, {"smiles": "Cc1ccc(Nc2nc(NCc3ccco3)c3ccccc3n2)cc1", "Potency": "inconclusive: 29.1 µM [inhibitor, single point]"}, {"smiles": "Cc1cc(C)c(Nc2ncnc(N)n2)c(C)c1", "Potency": "inactive"}, {"smiles": "CNc1ncc(C(=O)c2ccccc2)s1", "Potency": "inconclusive: 18.4 µM [activator, partial curve]"}, {"smiles": "CN1CCN(C(=S)c2cn(Cc3ccc(Br)cc3)c3ccccc23)CC1", "Potency": "inactive"}, {"smiles": "CCOC(=O)c1ccc(-c2ccc(/C=N/NC(=O)c3cncc(Br)c3)o2)cc1", "Potency": "inconclusive: 5.8 µM [activator, full curve]"}, {"smiles": "Cc1nn(CC(=O)N2c3ccccc3NC(=O)C2(C)C)c(C)c1[N+](=O)[O-]", "Potency": "inactive"}, {"smiles": "Cc1cc(C)c(C)c(S(=O)(=O)NC(C(=O)NCCc2ccco2)C(C)C)c1C", "note": "(configuration not stated)", "Potency": "inactive"}, {"smiles": "COCCCn1c(C)nc2c(c1=O)c1nc3ccccc3nc1n2CCc1ccccc1", "Potency": "inconclusive: 16.4 µM [inhibitor, partial curve, poor fit]"}, {"smiles": "Cc1cccc(NC(=O)c2cccnc2)c1", "Potency": "inconclusive: 29.1 µM [activator, single point]"}, {"smiles": "COc1ccc2nc(N3C(=O)CC(Cc4ccc(Cl)cc4)C3=O)sc2c1", "note": "(configuration not stated)", "Potency": "inactive"}, {"smiles": "CCc1nc(SCC(=O)NCc2ccc(F)cc2)c2c(=O)n(C)c(=O)n(C)c2n1", "Potency": "inactive"}, {"smiles": "CCOC(=O)C1(Cc2cccc(Cl)c2)CCCN(C(=O)c2cc(CC)on2)C1", "note": "(configuration not stated)", "Potency": "inconclusive: 10.3 µM [activator, partial curve]"}, {"smiles": "Cc1ccc([C@@H]2CC=C(C(=O)O)[C@H](c3cccc(Cl)c3)N2S(=O)(=O)c2ccccc2C)cc1", "Potency": "inactive"}, {"smiles": "Cc1ccc(-n2nc3c(N4CCC(C(=O)NCCc5ccco5)CC4)nnc(C)c3c2C)cc1", "Potency": "inactive"}, {"smiles": "CN(c1ccccc1)S(=O)(=O)c1cccc(NC(=O)CCNC(=O)c2ccc([N+](=O)[O-])cc2)c1", "Potency": "inconclusive: 20.6 µM [inhibitor, single point]"}, {"smiles": "Cc1cc(SCc2c(F)cccc2Cl)nc(=O)[nH]1", "Potency": "inconclusive: 23.1 µM [activator, single point]"}, {"smiles": "COc1ccccc1/C=C/C1=NC(=C\\N(C)C)/C(=O)O1", "Potency": "inconclusive: 13 µM [activator, partial curve]"}, {"smiles": "Cc1cc(N2CCOCC2)nc(SCc2c(Cl)cccc2Cl)n1", "Potency": "inactive"}, {"smiles": "O=C(Nc1ccccc1Cl)c1cnccn1", "Potency": "inconclusive: 11.2 µM [activator, partial curve]"}, {"smiles": "C=CCN(C(=O)Nc1ccc2c(c1)nc(C)n2C)c1ccccc1", "Potency": "inconclusive: 20.6 µM [activator, single point]"}, {"smiles": "CCOc1ccc(S(=O)(=O)N(CCO)CCO)cc1-c1nc2c(C(C)(C)C)nn(C)c2c(=O)[nH]1", "Potency": "inconclusive: 23.1 µM [inhibitor, single point]"}, {"smiles": "CCSc1nnc(-c2c[nH]c3ccccc23)o1", "Potency": "inconclusive: 20.6 µM [activator, partial curve]"}, {"smiles": "O=C1C(C=Nc2ccccc2)=C(O)c2ccccc21", "Potency": "inconclusive: 1.64 µM [activator, partial curve]"}, {"smiles": "O=C(Cc1ccc([N+](=O)[O-])cc1)Nc1ccc2c(c1)CCC2", "Potency": "inactive"}, {"smiles": "COc1ccc(Br)cc1S(=O)(=O)N1CCN=C1c1ccccc1", "Potency": "inactive"}, {"smiles": "CCC(=O)NNc1ncnc2c1cnn2-c1ccccc1", "Potency": "inconclusive: 1.3 µM [inhibitor, full curve, poor fit]"}]}]}
